Data as given in PubChem BioAssay AID743121 (NCATS, 2013)
Assay: 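Partners whose loss is lethal together with topoisomerase I blockade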 (primary screen). Cells: MDA-MB-231 cells, a human breast cancer line. Knock-down reagent: single siRNA against human genes, 20 nM siRNA (0.8 pmol per well). Timing: 120 h (drug added 48 h after transfection, read 72 h later). Challenge: camptothecin 20 nM (about EC30) for 72 h; vehicle 0.1% DMSO in parallel plates. Measurement: 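Cell viability by ATP luminescence (CellTiter-Glo) as % of non-targeting siRNA wells, and the log2 ratio of viability without drug over viability with camptothecin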. Direction: log2 vehicle/camptothecin viability: higher = stronger sensitisation to camptothecin; viability with camptothecin: higher = more viable cells. Rule for the call: 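Active genes have an RSA gene-level p-value below 0.001, computed from the ratios of their separate siRNAs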.
The deposit covers about 26,000 reagents; this is a random part of them. Over the whole deposit, 167 (0.63%) were called active. 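Calls are per gene from RSA p-values that are not deposited; an individual active-marked siRNA can sensitise only weakly.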 Unmarked entries are inactive. The numbers tell different reagents against one gene apart. Further read-outs or replicates are left out here.

no.	gene knocked down	siRNA no.	log2 vehicle/camptothecin viability	viability with camptothecin (% of control)
1	ADRA1D (adrenoceptor alpha 1D)	1	-0.2	108
2	ADRA1D (adrenoceptor alpha 1D)	2	0.772	28.9
3	ADRA1D (adrenoceptor alpha 1D)	3	-0.468	67.7
4	ADRA1D (adrenoceptor alpha 1D)	4	0.297	40.6
5	CD300LB (CD300 molecule like family member b)	1	0.253	45.8
6	CD300LB (CD300 molecule like family member b)	2	0.00838	74.8
7	CD300LB (CD300 molecule like family member b)	3	-0.385	61.9
8	CD300LB (CD300 molecule like family member b)	4	0.495	66.7
9	ABCC2 (ATP binding cassette subfamily C member 2)	1	-0.0938	18.5
10	ABCC2 (ATP binding cassette subfamily C member 2)	2	0.2	32.1
11	ABCC2 (ATP binding cassette subfamily C member 2)	3	-0.0996	63.4
12	ABCC2 (ATP binding cassette subfamily C member 2)	4	0.14	104
13	SNRPA1 (small nuclear ribonucleoprotein polypeptide A')	1	-0.665	44.7
14	SNRPA1 (small nuclear ribonucleoprotein polypeptide A')	2	-0.397	38.3
15	SNRPA1 (small nuclear ribonucleoprotein polypeptide A')	3	-0.716	50.6
16	SNRPA1 (small nuclear ribonucleoprotein polypeptide A')	4	-0.451	105
17	PDIA6 (protein disulfide isomerase family A member 6)	1	0.114	55.9
18	PDIA6 (protein disulfide isomerase family A member 6)	2	0.012	78.1
19	PDIA6 (protein disulfide isomerase family A member 6)	3	0.303	24.4
20	PDIA6 (protein disulfide isomerase family A member 6)	4	0.0509	88.2
21	MYLK4 (myosin light chain kinase family member 4)	1	0.062	74
22	MYLK4 (myosin light chain kinase family member 4)	2	-0.0546	70.2
23	MYLK4 (myosin light chain kinase family member 4)	3	-0.419	90.4
24	MYLK4 (myosin light chain kinase family member 4)	4	-0.375	108
25	SMYD5 (SMYD family member 5)	1	-0.438	96.2
26	SMYD5 (SMYD family member 5)	2	-0.0738	86.6
27	SMYD5 (SMYD family member 5)	3	0.1	44.3
28	TYROBP (transmembrane immune signaling adaptor TYROBP)	1	-0.342	119
29	TYROBP (transmembrane immune signaling adaptor TYROBP)	2	0.0306	99.6
30	TYROBP (transmembrane immune signaling adaptor TYROBP)	3	-0.101	67.4
31	TYROBP (transmembrane immune signaling adaptor TYROBP)	4	-0.184	98.5
32	SERPINB6 (serpin family B member 6)	1	-0.397	80.2
33	SERPINB6 (serpin family B member 6)	2	0.0642	63.3
34	SERPINB6 (serpin family B member 6)	3	-0.0158	54.2
35	SERPINB6 (serpin family B member 6)	4	1.25	6.83
36	LMAN1 (lectin, mannose binding 1)	1	-0.308	91.8
37	LMAN1 (lectin, mannose binding 1)	2	-0.475	61.3
38	TRIM16 (tripartite motif containing 16)	1	-0.409	72.3
39	TRIM16 (tripartite motif containing 16)	2	0.983	33.2
40	TRIM16 (tripartite motif containing 16)	3	-0.163	94.2
41	TRIM16 (tripartite motif containing 16)	4	-0.408	59
42	TRIM16 (tripartite motif containing 16)	5	-0.0689	80.4
43	POLN (DNA polymerase nu)	1	-0.239	82.5
44	POLN (DNA polymerase nu)	2	-0.126	74
45	POLN (DNA polymerase nu)	3	-0.168	111
46	POLN (DNA polymerase nu)	4	-0.316	71.8
47	RNF170 (ring finger protein 170)	1	-0.158	49.1
48	RNF170 (ring finger protein 170)	2	0.0862	74.6
49	RNF170 (ring finger protein 170)	3	-0.0808	82.4
50	RNF170 (ring finger protein 170)	4	0.143	59.7
51	BMPR2 (bone morphogenetic protein receptor type 2)	1	-0.344	70.4
52	BMPR2 (bone morphogenetic protein receptor type 2)	2	-0.402	93.7
53	BMPR2 (bone morphogenetic protein receptor type 2)	3	0.0292	95.8
54	BMPR2 (bone morphogenetic protein receptor type 2)	4	-0.59	74.2
55	PMS1 (PMS1 homolog 1, mismatch repair system component)	1	-0.229	130
56	PMS1 (PMS1 homolog 1, mismatch repair system component)	2	-0.169	77
57	PMS1 (PMS1 homolog 1, mismatch repair system component)	3	-0.367	115
58	PMS1 (PMS1 homolog 1, mismatch repair system component)	4	-0.111	109
59	NMUR2 (neuromedin U receptor 2)	1	-0.33	39.9
60	NMUR2 (neuromedin U receptor 2)	2	0.147	39.1
61	NMUR2 (neuromedin U receptor 2)	3	-0.416	53.9
62	NMUR2 (neuromedin U receptor 2)	4	-0.734	57.8
63	NEUROG1 (neurogenin 1)	1	0.21	60.5
64	NEUROG1 (neurogenin 1)	2	-0.513	71
65	NEUROG1 (neurogenin 1)	3	0.06	117
66	NEUROG1 (neurogenin 1)	4	0.724	35.8
67	SLC10A2	1	-0.164	103
68	SLC10A2	2	-0.236	35.4
69	SLC10A2	3	0.00354	9.85
70	SLC10A2	4	-0.377	97

Limited to “log2 vehicle/camptothecin viability”, for 12 of the entries above:
SNRPA1 (small nuclear ribonucleoprotein polypeptide A') #1 = -0.665
SNRPA1 (small nuclear ribonucleoprotein polypeptide A') #2 = -0.397
SNRPA1 (small nuclear ribonucleoprotein polypeptide A') #3 = -0.716
SNRPA1 (small nuclear ribonucleoprotein polypeptide A') #4 = -0.451
PDIA6 (protein disulfide isomerase family A member 6) #1 = 0.114
PDIA6 (protein disulfide isomerase family A member 6) #2 = 0.012
PDIA6 (protein disulfide isomerase family A member 6) #3 = 0.303
PDIA6 (protein disulfide isomerase family A member 6) #4 = 0.0509
MYLK4 (myosin light chain kinase family member 4) #1 = 0.062
MYLK4 (myosin light chain kinase family member 4) #2 = -0.0546
MYLK4 (myosin light chain kinase family member 4) #3 = -0.419
MYLK4 (myosin light chain kinase family member 4) #4 = -0.375
